From US11103435B2, “Malodor reducing compositions” (Givaudan, S.A., priority 2014, dated 2021)

Experiment: Odor Value (log10 OV) of perfume materials: Standard Equilibrium Headspace Concentration / Odor Detection Threshold
Conditions: common logarithm of Odor Value = headspace concentration (20° C., 1 atmosphere) / Odor Detection Threshold

| SMILES | Log10OV |
| --- | --- |
| CC/C=C\CC/C=C/CO [NONADIENOL-2,6, (2E,6Z)-nona-2,6-dien-1-ol] | 7.1 |
| COc1ccc(CC2CC2)cc1 [TOSCANOL, 1-(cyclopropylmethyl)-4-methoxybenzene] | 5.7 |
| C=C/C=C/C=C\CCCCC [(3E,5Z)-undeca-1,3,5-triene] | 6.7 |
| C=C(C)C1CC=C(C)C(=O)C1 (stereo not shown) [CARVONE LAEVO, 2-methyl-5-(prop-1-en-2-yl)cyclohex-2-enone] | 5.8 |
| C=CC(C)(O)CCC=C(C)C (stereo not shown) [LINALOL SYNT, 3,7-dimethylocta-1,6-dien-3-ol] | 5.8 |
| CC1CC(C)(c2ccccc2)CO1 (stereo not shown) [RHUBAFURAN, 2,4-dimethyl-4-phenyltetrahydrofuran] | 5.9 |
| C=CCCC(=O)C1=CC(C)(C)CCC1 [GALBANONE PURE, 1-(3,3-dimethylcyclohex-1-en-1-yl)pent-4-en-1-one] | 6.6 |
| CC12CCC(CC1)C(C)(C)O2 [EUCALYPTOL COSMOS, (1s,4s)-1,3,3-trimethyl-2-oxabicyclo[2.2.2]octane] | 7.0 |
| CC(C)CCCC(C)(C)O [DIMETOL, 2,6-dimethylheptan-2-ol] | 5.5 |
| CC(C)=CCCC(C)C=O (stereo not shown) [MELONAL, 2,6-dimethylhept-5-enal] | 6.6 |
| Cc1ccc2c(c1)OCC(=O)CO2 [CALONE 1951, 7-methyl-2H-benzo[b][1,4]dioxepin-3(4H)-one] | 6.0 |
| CC(=O)c1oc2ccccc2c1C [NEROLIONE, 1-(3-methylbenzofuran-2-yl)ethanone] | 7.3 |
| CCC(C)C1CCCc2cccnc21 (stereo not shown) [BIGARYL, 8-(sec-butyl)-5,6,7,8-tetrahydroquinoline] | 6.6 |
| CCCCCCC1CCCC1=O (stereo not shown) [JASMATONE] | 4.8 |
| CCCCCCCCCC(C)C=O (stereo not shown) [ALD C12 MNA PUR, 2-methylundecanal] | 7.0 |
| CC(C)=CC1CC(C)CCO1 (stereo not shown) [ROSE OXIDE CO, 4-methyl-2-(2-methylprop-1-en-1-yl)tetrahydro-2H-pyran] | 7.4 |
| CC(=O)C1(C)CC2=C(CCCC2(C)C)CC1C (stereo not shown) [ISO E SUPER] | 4.5 |
| C=CCCC(=O)C(=C)C1CCCCC1 [PHARAONE 10%/DPG, 2-cyclohexylhepta-1,6-dien-3-one] | 6.2 |
| CC1CCC(c2ccccn2)C(C)C1 (stereo not shown) [ZINARINE, 2-(2,4-dimethylcyclohexyl)pyridine] | 5.4 |
| CCOC(=O)C1=C(C)C=CCC1(C)C [SAFRANATE ETHYLE, ethyl 2,6,6-trimethylcyclohexa-1,3-diene-1-carboxylate] | 6.2 |
| C=CC(C)CCCC(C)(C)O (stereo not shown) [DIHYDRO MYRCENOL] | 5.4 |
| CC1=CCC(C=CC(C)C(C)O)C1(C)C (stereo in doubt) [EBANOL] | 5.3 |
| C=CCOC(=O)COCCC(C)C [ALLYL AMLY GLYCOLATE, allyl 2-(isopentyloxy)acetate] | 5.8 |
| CCOc1cc(COC)ccc1O [METHYL DIANTILIS] | 3.9 |
| CC1=CC(C)C(C=O)CC1 (stereo not shown) [CYCLAL C, 2,4-dimethylcyclohex-3-enecarbaldehyde] | 5.9 |
| CC=C(CC)CCC(C)CCO (stereo not shown) [SUPER MUGUET] | 4.0 |
| CC1C/C=C/CCCCCCCC(=O)OCC1 (stereo not shown) [NIRVANOLIDE] | 4.3 |
| CC(=O)/C=C/C1C(C)=CCCC1(C)C (stereo not drawn) [IRISONE ALPHA, (E)-4-(2,6,6-trimethylcyclohex-2-en-1-yl)but-3-en-2-one] | 5.1 |
